According to article doi:10.1101/2022.09.29.510132:
No constants are given. Whether binding was seen depends on the method and setting. For some of these results: In cells and extracts the contact can be indirect. Some results given as binding are weak or reduced against the parent protein; the word gives no strength.

The chains behind the UniProt entries cited, without tags or fusion partners. Where a name states a change or a piece, a line headed by the entry shows the natural chain unless it says otherwise. Residues count along the entry.
UniProt Q9UHD9: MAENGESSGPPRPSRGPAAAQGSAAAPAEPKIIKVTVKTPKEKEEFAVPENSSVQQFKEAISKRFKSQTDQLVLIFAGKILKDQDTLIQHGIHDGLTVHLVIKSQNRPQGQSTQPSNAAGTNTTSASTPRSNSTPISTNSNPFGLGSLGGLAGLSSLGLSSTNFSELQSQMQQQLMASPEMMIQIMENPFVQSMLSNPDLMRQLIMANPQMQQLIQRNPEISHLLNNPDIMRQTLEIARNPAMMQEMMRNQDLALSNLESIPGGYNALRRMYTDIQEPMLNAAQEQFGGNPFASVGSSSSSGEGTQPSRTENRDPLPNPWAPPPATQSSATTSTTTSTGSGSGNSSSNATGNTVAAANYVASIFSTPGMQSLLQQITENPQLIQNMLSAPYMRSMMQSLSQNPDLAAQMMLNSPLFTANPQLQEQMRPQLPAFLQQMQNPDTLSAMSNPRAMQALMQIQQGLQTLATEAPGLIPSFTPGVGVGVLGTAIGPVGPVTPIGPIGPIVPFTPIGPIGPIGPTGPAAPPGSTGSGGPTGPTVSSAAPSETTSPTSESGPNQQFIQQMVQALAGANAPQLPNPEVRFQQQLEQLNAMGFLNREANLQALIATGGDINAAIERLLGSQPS
UBQLN2 ΔUBLΔUBA (109-576): residues 109-576 of Q9UHD9
UniProt Q9UMX0: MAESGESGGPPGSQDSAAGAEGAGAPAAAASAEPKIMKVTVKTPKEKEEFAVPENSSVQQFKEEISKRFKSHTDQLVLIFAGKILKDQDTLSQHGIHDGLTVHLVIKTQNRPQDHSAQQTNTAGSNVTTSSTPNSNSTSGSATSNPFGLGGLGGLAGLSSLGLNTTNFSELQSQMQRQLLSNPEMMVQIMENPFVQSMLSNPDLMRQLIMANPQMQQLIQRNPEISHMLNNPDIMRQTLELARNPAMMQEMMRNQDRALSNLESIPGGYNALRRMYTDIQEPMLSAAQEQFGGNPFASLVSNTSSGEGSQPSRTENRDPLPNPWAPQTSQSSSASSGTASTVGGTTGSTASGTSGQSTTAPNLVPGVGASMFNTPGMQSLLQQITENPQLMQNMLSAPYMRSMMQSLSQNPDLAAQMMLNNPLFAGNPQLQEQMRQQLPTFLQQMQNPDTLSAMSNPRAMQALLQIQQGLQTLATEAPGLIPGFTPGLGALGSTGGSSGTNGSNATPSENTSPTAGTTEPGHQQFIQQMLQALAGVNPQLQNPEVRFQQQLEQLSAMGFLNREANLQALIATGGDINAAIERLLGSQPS
UniProt Q05086: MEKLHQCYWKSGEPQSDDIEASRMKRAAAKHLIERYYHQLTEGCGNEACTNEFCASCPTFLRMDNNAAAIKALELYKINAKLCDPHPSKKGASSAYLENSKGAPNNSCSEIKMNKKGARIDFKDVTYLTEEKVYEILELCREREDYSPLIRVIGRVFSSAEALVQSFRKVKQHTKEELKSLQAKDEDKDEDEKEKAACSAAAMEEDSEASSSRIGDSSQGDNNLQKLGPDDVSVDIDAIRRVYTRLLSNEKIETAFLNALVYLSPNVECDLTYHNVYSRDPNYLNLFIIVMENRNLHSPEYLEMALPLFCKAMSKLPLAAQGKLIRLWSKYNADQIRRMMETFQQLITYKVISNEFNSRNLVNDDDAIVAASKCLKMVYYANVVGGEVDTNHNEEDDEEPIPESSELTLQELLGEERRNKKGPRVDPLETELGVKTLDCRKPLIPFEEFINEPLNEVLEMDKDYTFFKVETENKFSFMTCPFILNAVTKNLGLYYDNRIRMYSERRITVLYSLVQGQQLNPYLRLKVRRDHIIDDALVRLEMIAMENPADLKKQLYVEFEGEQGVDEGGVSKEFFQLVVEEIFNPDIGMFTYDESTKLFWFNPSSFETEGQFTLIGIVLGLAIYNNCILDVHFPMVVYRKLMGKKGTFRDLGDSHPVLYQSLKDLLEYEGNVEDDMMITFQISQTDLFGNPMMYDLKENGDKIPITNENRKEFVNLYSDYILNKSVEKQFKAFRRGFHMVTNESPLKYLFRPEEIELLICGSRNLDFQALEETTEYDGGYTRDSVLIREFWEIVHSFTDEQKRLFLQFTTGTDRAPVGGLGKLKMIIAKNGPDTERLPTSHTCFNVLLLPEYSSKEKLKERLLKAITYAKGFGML
UniProt P55036: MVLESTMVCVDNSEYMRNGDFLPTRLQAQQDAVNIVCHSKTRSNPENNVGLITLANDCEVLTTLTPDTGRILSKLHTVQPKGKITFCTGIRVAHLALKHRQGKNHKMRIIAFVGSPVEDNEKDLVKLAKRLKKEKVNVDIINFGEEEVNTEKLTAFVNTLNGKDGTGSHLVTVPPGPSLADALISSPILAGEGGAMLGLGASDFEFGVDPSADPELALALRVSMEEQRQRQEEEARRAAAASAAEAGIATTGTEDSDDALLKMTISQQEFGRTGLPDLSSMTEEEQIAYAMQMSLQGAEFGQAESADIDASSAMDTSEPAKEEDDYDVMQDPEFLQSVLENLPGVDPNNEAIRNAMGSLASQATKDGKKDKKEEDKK

Legend:
[1] = target: UBQLN2 ΔUBLΔUBA (109-576) (UniProt Q9UHD9); assay: recruitment to phase-separated droplets
[2] = target: UBQLN2 (human (endogenous in HCT116)) (UniProt Q9UHD9); assay: co-IP
[3] = target: UBQLN1 (human (endogenous in HCT116)) (UniProt Q9UMX0); assay: co-IP

**Q.** How did the binding [1] turn out when “AZUL-mEGFP (from UniProt Q05086 24-87) (domain or fragment)” was run?
**A.** Its binding is “no binding (tested: 25 µM AZUL-mEGFP)”.

**Q.** How did the binding [2] turn out when “E6AP (from UniProt Q05086 1-875) (enzyme)” was run?
**A.** The binding was “binds”.

**Q.** What does the source list for hRpn10 (from UniProt P55036 1-377)?
**A.** binding [2]: binds; binding [3]: binds
